Data on six molecules can be found in publication doi:10.1101/2025.03.03.641315.

T1: GFP-TBC1D19 (stably expressed in RPE-1 cells) (UniProt Q8N5T2)
T1 sequence: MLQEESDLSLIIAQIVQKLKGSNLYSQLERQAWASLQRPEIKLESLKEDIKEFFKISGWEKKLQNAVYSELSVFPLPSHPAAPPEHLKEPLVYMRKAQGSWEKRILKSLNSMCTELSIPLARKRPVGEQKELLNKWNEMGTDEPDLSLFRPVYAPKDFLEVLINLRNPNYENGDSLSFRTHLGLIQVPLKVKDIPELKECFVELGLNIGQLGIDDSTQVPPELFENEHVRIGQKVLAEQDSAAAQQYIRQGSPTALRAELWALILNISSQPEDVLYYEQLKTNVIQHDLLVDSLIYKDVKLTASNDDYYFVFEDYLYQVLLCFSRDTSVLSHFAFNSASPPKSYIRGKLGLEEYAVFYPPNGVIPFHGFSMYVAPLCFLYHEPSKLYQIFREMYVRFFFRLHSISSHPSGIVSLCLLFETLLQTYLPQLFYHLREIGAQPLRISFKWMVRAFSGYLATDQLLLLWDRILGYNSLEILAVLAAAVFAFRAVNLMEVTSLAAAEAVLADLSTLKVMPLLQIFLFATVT

B1: LRRC49/CSTPP2 (protein, UniProt Q8IUZ0 1-686)
chain: MIPGKYRSVSGRAANNVNCGLHLVIQTSSLPEKNKVEFKLNKDTSSFPGRLLQHDLERNYSSRQGDHINLVSSSLSSFPILQRSSEEKILYSDRLSLERQKLTVCPIINGEDHLRLLNFQHNFITRIQNISNLQKLISLDLYDNQIEEISGLSTLRCLRVLLLGKNRIKKISNLENLKSLDVLDLHGNQITKIENINHLCELRVLNLARNFLSHVDNLNGLDSLTELNLRHNQITFVRDVDNLPCLQHLFLSFNNISSFDSVSCLADSSSLSDITFDGNPIAQESWYKHTVLQNMMQLRQLDMKRITEEERRMASVLAKKEEEKKRESHKQSLLKEKKRLTINNVARQWDLQQQRVANIATNEDRKDSDSPQDPCQIDGSTLSAFPEETGPLDSGLNNALQGLSVIDTYLVEVDGDTLSLYGSGALESLDRNWSVQTAGMITTVSFTFIEFDEIVQVLPKLKIKFPNSLHLKFKETNLVMLQQFNALAQLRRIDQLTIDPQGNPVVNFTLWKYYVLFRLSHFSMQKINGTEVTQNDMIMAERLFGILAHVASSELPQYRLISILGDARKKQFRYLLESKGKKPGIINEENNDSKRLVGENTNRATLNYTTRDFYNEKLEEIKEKKKFCKTYIEDLVKEATEINMKNEALQKLWPQMFIELVRDAVIEIRNKNSYMKLCLQQITDQK
B2: TPGS2 (protein, UniProt Q68CL5 1-300)
chain: MEEEASSPGLGCSKPHLEKLTLGITRILESSPGVTEVTIIEKPPAERHMISSWEQKNNCVMPEDVKNFYLMTNGFHMTWSVKLDEHIIPLGSMAINSISKLTQLTQSSMYSLPNAPTLADLEDDTHEASDDQPEKPHFDSRSVIFELDSCNGSGKVCLVYKSGKPALAEDTEIWFLDRALYWHFLTDTFTAYYRLLITHLGLPQWQYAFTSYGISPQAKQWFSMYKPITYNTNLLTEETDSFVNKLDPSKVFKSKNKIVIPKKKGPVQPAGGQKGPSGPSGPSTSSTSKSSSGSGNPTRK
B3: C11orf49/CSTPP1 (protein, UniProt Q9H6J7 1-331)
chain: MLSPERLALPDYEYLAQRHVLTYMEDAVCQLLENREDISQYGIARFFTEYFNSVCQGTHILFREFSFVQATPHNRVSFLRAFWRCFRTVGKNGDLLTMKEYHCLLQLLCPDFPLELTQKAARIVLMDDAMDCLMSFSDFLFAFQIQFYYSEFLDSVAAIYEDLLSGKNPNTVIVPTSSSGQHRQRPALGGAGTLEGVEASLFYQCLENLCDRHKYSCPPPALVKEALSNVQRLTFYGFLMALSKHRGINQALGALPDKGDLMHDPAMDEELERLLAQVPGLVNSVTASPEASCLPSRTPPRVGSPWRPLHHSRKVDGESDGSTEETDESET
B4: TPGS1 (protein, UniProt Q6ZTW0 1-290)
chain: MAAVEKRRQAVPPPAGFTDSGRQSVSRAAGAAESEEDFLRQVGVTEMLRAALLKVLEARPEEPIAFLAHYFENMGLRSPVNGGAGEPPGQLLLQQQRLGRALWHLRLAHHSQRAAFNNNVSVAYECLSAGGRRKRPGLDGRTYSELLRRICRDGQAPEEVVAPLLRKVQCRDHEAVPLSVFRAGTLTCFVLLEFVARAGALFQLLEDSAAAVADRRVGQAVLDTLEGALQASDAAAPARFLEAGSRLGPDSLALALDRAVGGRRPSAPMTREEFLERAAALFIAKVKPVG
B5: NICN1 (protein, UniProt Q9BSH3 1-213)
chain: MSRVLVPCHVKGSVALQVGDVRTSQGRPGVLVIDVTFPSVAPFELQEITFKNYYTAFLSIRVRQYTSAHTPAKWVTCLRDYCLMPDPHSEEGAQEYVSLFKHQMLCDMARISELRLILRQPSPLWLSFTVEELQIYQQGPKSPSVTFPKWLSHPVPCEQPALLREGLPDPSRVSSEVQQMWALTEMIRASHTSARIGRFDVDGCYDLNLLSYT

These are yes or no findings as the source states them, for the method shown. In cells and extracts the contact can be indirect. Here binding means that the protein was enriched with, or labelled near, the bait; the list need not be complete. No binding means not detected with the bait. Tags and fused reporters may be left off the sequences shown.

In this assay the target is T1, GFP-TBC1D19 (stably expressed in RPE-1 cells). Nature of the assay: affinity purification with mass spectrometry.
Regarding TTLL1 (from UniProt O95922 1-423), the binding entry is “binds”.

As to B1, the binding result is “binds”.

On to B2, for which the binding entry was “no binding”.

For B3, the binding entry is listed as “binds”.

Consider B4, for which the binding entry is recorded as “binds”.

For B5, the binding entry is on record as “binds”.
